Some results were stated once for a whole list of compounds, not compound by compound.
test system: Anopheles stephensi; experiment: Anopheles stephensi (Indian malaria mosquito) dry deposit contact test; type: in vivo; details: 200 ppm in ethanol, dry deposit in 12 well plates, adult females; mortality after 48 h and/or 24 h

Row | SMILES | control of Anopheles stephensi after 48 h and/or 24 h
1 | CCN(C(=O)c1ccc(C#N)cc1)c1cccc(C(=O)Nc2c(Br)cc(C(F)(C(F)(F)F)C(F)(F)F)cc2Br)c1OC [Compound 5] | at least 80%
2 | CCN(C(=O)c1ccc(C#N)cc1)c1cccc(C(=O)Nc2c(Cl)cc(C(F)(C(F)(F)F)C(F)(F)F)cc2Cl)c1OC [Compound 2] | at least 80%
3 | COc1c(C(=O)Nc2c(Cl)cc(C(F)(C(F)(F)F)C(F)(F)F)cc2Br)cccc1N(C)C(=O)c1ccc(C#N)cc1 [Compound 4] | at least 80%
4 | COc1c(C(=O)Nc2c(Br)cc(C(F)(C(F)(F)F)C(F)(F)F)cc2Br)cccc1N(C)C(=O)c1ccc(C#N)cc1 [Compound 6] | at least 80%
5 | CCN(C(=O)c1ccc(C#N)cc1)c1cccc(C(=O)Nc2c(Cl)cc(C(F)(C(F)(F)F)C(F)(F)F)cc2Br)c1OC [Compound 1, N-[2-bromo-6-chloro-4-[1,1,1,2,3,3,3-heptafluoro-prop-2-yl]phenyl]-3-[(4-cyanobenzoyl)-ethyl-amino]-2-methoxy-benzamide] | at least 80%
6 | COc1c(C(=O)Nc2c(Cl)cc(C(F)(C(F)(F)F)C(F)(F)F)cc2Cl)cccc1N(C)C(=O)c1ccc(C#N)cc1 [Compound 7] | at least 80%

— US9718762B2, “Insecticidal compounds” (Syngenta Participations AG, priority 2013, dated 2017)
